From publication doi:10.1101/2023.03.09.531914
Where two headings read alike, the source gives them in different places. No constants are given. Whether binding was seen depends on the method and setting. In cells and extracts the contact can be indirect. Here binding means that the protein was enriched with, or labelled near, the bait; the list need not be complete. For some of these results: Where a sequence is shown, tags or fusion partners need not be part of it.

By UniProt entry, the sequences of proteins in these tests, tags left out.
UniProt Q6NZF1: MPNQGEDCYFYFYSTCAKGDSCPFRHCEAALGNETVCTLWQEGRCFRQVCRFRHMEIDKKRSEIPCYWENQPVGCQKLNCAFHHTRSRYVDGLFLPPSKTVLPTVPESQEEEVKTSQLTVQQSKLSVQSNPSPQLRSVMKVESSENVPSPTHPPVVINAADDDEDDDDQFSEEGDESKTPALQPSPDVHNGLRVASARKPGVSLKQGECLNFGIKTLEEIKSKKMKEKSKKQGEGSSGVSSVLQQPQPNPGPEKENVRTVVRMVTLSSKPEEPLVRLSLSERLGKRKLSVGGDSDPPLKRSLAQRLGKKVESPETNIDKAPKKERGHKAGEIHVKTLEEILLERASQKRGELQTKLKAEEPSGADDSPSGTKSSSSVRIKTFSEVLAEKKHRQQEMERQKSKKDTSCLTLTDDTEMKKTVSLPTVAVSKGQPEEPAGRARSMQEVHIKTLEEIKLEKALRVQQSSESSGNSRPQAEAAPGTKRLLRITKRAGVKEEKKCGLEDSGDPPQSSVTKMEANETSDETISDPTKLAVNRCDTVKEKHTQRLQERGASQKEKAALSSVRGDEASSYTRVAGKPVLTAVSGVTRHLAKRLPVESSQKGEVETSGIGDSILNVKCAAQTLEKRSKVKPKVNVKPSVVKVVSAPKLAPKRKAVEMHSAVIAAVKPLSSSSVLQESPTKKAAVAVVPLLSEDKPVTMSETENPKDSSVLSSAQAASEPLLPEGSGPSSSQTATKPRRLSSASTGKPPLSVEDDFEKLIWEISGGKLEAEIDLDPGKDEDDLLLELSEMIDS
UniProt Q13838: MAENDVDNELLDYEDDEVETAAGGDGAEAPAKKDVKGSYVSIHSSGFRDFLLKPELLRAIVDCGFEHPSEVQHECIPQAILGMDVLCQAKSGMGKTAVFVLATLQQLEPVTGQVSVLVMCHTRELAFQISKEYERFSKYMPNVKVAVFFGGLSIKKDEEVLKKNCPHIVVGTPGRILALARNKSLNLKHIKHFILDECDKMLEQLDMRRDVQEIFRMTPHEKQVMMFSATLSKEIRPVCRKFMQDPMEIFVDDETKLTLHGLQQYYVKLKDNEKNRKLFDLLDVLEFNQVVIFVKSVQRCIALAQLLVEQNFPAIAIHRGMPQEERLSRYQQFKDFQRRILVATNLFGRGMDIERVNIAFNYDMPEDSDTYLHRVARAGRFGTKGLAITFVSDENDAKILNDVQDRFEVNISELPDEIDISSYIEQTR
UniProt P11940: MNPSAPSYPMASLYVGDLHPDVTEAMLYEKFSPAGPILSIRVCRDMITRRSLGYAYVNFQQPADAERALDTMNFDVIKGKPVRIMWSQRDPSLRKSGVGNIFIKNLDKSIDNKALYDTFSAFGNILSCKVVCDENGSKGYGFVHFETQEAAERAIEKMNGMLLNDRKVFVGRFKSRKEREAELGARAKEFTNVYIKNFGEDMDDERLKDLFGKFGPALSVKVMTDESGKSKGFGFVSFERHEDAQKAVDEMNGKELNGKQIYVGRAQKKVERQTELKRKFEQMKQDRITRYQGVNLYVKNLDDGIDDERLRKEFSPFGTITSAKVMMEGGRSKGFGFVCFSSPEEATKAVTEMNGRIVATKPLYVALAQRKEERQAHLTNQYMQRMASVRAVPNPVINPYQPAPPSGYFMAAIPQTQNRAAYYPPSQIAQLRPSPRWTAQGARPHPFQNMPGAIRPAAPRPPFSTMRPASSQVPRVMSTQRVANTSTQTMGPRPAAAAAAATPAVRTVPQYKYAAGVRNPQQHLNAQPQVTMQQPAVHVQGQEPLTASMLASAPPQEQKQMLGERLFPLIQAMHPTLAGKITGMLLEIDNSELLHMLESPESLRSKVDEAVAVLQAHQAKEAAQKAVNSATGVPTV

T1: GFP-ZC3H11A(dZF) (human) (UniProt O75152)
T1 sequence: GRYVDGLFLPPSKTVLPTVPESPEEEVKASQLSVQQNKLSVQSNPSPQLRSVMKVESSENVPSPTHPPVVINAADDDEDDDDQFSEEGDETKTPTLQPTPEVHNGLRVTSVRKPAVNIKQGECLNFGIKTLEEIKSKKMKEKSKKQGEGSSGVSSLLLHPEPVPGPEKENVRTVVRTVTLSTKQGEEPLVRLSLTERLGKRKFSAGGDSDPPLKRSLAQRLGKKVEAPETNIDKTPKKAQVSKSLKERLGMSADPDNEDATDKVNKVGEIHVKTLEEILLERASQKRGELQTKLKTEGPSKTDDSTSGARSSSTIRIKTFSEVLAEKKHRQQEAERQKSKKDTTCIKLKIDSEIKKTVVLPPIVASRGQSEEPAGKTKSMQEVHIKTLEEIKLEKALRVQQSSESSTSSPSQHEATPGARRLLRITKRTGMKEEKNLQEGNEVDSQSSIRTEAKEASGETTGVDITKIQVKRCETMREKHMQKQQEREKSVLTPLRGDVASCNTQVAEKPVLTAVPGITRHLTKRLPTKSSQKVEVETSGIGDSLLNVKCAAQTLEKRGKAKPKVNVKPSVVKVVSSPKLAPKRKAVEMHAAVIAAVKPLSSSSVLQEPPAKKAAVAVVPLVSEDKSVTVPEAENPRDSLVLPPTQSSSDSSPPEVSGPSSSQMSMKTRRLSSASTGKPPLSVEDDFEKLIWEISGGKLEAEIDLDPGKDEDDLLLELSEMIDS

B1: PABPN1 (endogenous, mouse embryonic stem cells) (protein, UniProt Q8CCS6 1-302)
chain: MAAAAAAAAAAGAAGGRGSGPGRRRHLVPGAGGEAGEGDPGGAGDYGNGLESEELEPGELLPEPEPEEEPPRPRAPPGAPGPGPGSGAPGSQEEEEEPGLVEADPGDGAIEDPELEAIKARVREMEEEAEKLKELQNEVEKQMNMSPPPGNAGPVIMSLEEKMEADARSIYVGNVDYGATAEELEAHFHGCGSVNRVTILCDKFSGHPKGFAYIEFSDKESVRTSLALDESLFRGRQIKVIPKRTNRPGISTTDRGFPRSRYRARTTNYNSSRSRFYSGFNSRPRGRIYRGRARATSWYSPY
B2: THOC1 (endogenous, HeLa cells) (protein, UniProt Q96FV9 1-657)
chain: MSPTPPLFSLPEARTRFTKSTREALNNKNIKPLLSTFSQVPGSENEKKCTLDQAFRGILEEEIINHSSCENVLAIISLAIGGVTEGICTASTPFVLLGDVLDCLPLDQCDTIFTFVEKNVATWKSNTFYSAGKNYLLRMCNDLLRRLSKSQNTVFCGRIQLFLARLFPLSEKSGLNLQSQFNLENVTVFNTNEQESTLGQKHTEDREEGMDVEEGEMGDEEAPTTCSIPIDYNLYRKFWSLQDYFRNPVQCYEKISWKTFLKYSEEVLAVFKSYKLDDTQASRKKMEELKTGGEHVYFAKFLTSEKLMDLQLSDSNFRRHILLQYLILFQYLKGQVKFKSSNYVLTDEQSLWIEDTTKSVYQLLSENPPDGERFSKMVEHILNTEENWNSWKNEGCPSFVKERTSDTKPTRIIRKRTAPEDFLGKGPTKKILMGNEELTRLWNLCPDNMEACKSETREHMPTLEEFFEEAIEQADPENMVENEYKAVNNSNYGWRALRLLARRSPHFFQPTNQQFKSLPEYLENMVIKLAKELPPPSEEIKTGEDEDEEDNDALLKENESPDVRRDKPVTGEQIEVFANKLGEQWKILAPYLEMKDSEIRQIECDSEDMKMRAKQLLVAWQDQEGVHATPENLINALNKSGLSDLAESLTNDNETNS
B3: THOC6 (endogenous, HeLa cells) (protein, UniProt Q86W42 1-341)
chain: MERAVPLAVPLGQTEVFQALQRLHMTIFSQSVSPCGKFLAAGNNYGQIAIFSLSSALSSEAKEESKKPVVTFQAHDGPVYSMVSTDRHLLSAGDGEVKAWLWAEMLKKGCKELWRRQPPYRTSLEVPEINALLLVPKENSLILAGGDCQLHTMDLETGTFTRVLRGHTDYIHCLALRERSPEVLSGGEDGAVRLWDLRTAKEVQTIEVYKHEECSRPHNGRWIGCLATDSDWMVCGGGPALTLWHLRSSTPTTIFPIRAPQKHVTFYQDLILSAGQGRCVNQWQLSGELKAQVPGSSPGLLSLSLNQQPAAPECKVLTAAGNSCRVDVFTNLGYRAFSLSF
B4: POLDIP3 (endogenous, HeLa cells) (protein, UniProt Q9BY77 1-421)
chain: MADISLDELIRKRGAAAKGRLNARPGVGGVRSRVGIQQGLLSQSTRTATFQQRFDARQKIGLSDARLKLGVKDAREKLLQKDARFRIKGKVQDAREMLNSRKQQTTVPQKPRQVADAREKISLKRSSPAAFINPPIGTVTPALKLTKTIQVPQQKAMAPLHPHPAGMRINVVNNHQAKQNLYDLDEDDDGIASVPTKQMKFAASGGFLHHMAGLSSSKLSMSKALPLTKVVQNDAYTAPALPSSIRTKALTNMSRTLVNKEEPPKELPAAEPVLSPLEGTKMTVNNLHPRVTEEDIVELFCVCGALKRARLVHPGVAEVVFVKKDDAITAYKKYNNRCLDGQPMKCNLHMNGNVITSDQPILLRLSDSPSMKKESELPRRVNSASSSNPPAEVDPDTILKALFKSSGASVTTQPTEFKIKL
B5: PABPN1 (endogenous, HeLa cells) (protein, UniProt Q86U42 1-306)
chain: MAAAAAAAAAAGAAGGRGSGPGRRRHLVPGAGGEAGEGAPGGAGDYGNGLESEELEPEELLLEPEPEPEPEEEPPRPRAPPGAPGPGPGSGAPGSQEEEEEPGLVEGDPGDGAIEDPELEAIKARVREMEEEAEKLKELQNEVEKQMNMSPPPGNAGPVIMSIEEKMEADARSIYVGNVDYGATAEELEAHFHGCGSVNRVTILCDKFSGHPKGFAYIEFSDKESVRTSLALDESLFRGRQIKVIPKRTNRPGISTTDRGFPRARYRARTTNYNSSRSRFYSGFNSRPRGRVYRGRARATSWYSPY
B6: CHTOP (endogenous, mouse embryonic stem cells) (protein, UniProt Q9CY57 1-249)
chain: MAAQSAPKVVLKSTTKMSLNERFTNMLKNKQPMPVNIRASMQQQQQLASARNRRLAQQMENRPSVQAALKLKQKSLKQRLGKSNIQARLGRPIGALARGAIGGRGLPIIQRGLPRGGLRGGRATRTLLRGGMSLRGQNLLRGGRAVAPRMGLRRGGVRGRGGPGRGGLGRGAMGRGGIGGRGRGMIGRGRGGFGGRGRGRGRGRGALTRPVLTKEQLDNQLDAYMSKTKGHLDAELDAYMAQTDPETND
B7: POLDIP3 (endogenous, mouse embryonic stem cells) (protein, UniProt Q8BG81 1-420)
chain: MADLSLDELIRKRGTAAKGRLSVRPGIGGVRSRVGIQHSLVNQPARTATFQQRFDARQKIGLSDARLKLGVKDAREKLLQKDARFRIKGKVQDAREMLNSRKQQGTVPQKPRQVADAREKISLKRRSPAAFTSPPIGTVTPALKLTKTIQVPQQKAMVPLHAHPAGMRINVVNNHQAKQNLYDLDEDDDIVVPVPPKQMKFAATGSLVHHMTGLSSSKLSMSKALPLTKVVQNDAYTAPVLPSSVRTKALTSMSRTLVNKEEPPKELPPAEPVLSPLEGTKMTVNNLHPRVTEEDIVELFCVCGALKRARLVHPGVAEVVFVKKDDAITAYKKYNNRCLDGQPMKCNLHMNGNVITSDQPILLRLSDSPSVKKESELPRRGNPASSNPPAEVDPDTVLRALFKSSGASVTTQPTEFKIKL

Experiments:
Test in all cases: affinity purification with mass spectrometry
[1] = molecular target: GFP-ZC3H11A(wt) (human) (UniProt O75152)
[2] = molecular target: ZC3H11A (endogenous, mouse embryonic stem cells) (mouse (endogenous in mESCs)) (UniProt Q6NZF1)
[3] = molecular target: GFP-ZC3H11A(wt) (human) (UniProt O75152); remark: listed apart in the source
[4] = molecular target: ZC3H11A (endogenous, HeLa cells) (human (endogenous in HeLa)) (UniProt O75152)
[5] = molecular target: T1, GFP-ZC3H11A(dZF) (human)
[6] = molecular target: ZC3H11A(wt)-Flag (expressed in HeLa cells) (human) (UniProt O75152)

| Molecule | binding [2] | binding [3] | other results |
| --- | --- | --- | --- |
| DDX39B (endogenous, HeLa cells) (from UniProt Q13838 1-428) | – | – | binding [1]: binds |
| PABPC1 (endogenous, HeLa cells) (from UniProt P11940 1-636) | – | – | binding [1]: binds |
| B1 | binds | – | – |
| B2 | – | binds | – |
| B3 | – | binds | – |
| B4 | – | binds | binding [4]: binds; binding [5]: binds |
| B5 | – | binds | binding [4]: binds; binding [6]: binds |
| B6 | binds | – | – |
| B7 | binds | – | – |
